Results as given in publication PMC4464616, “SIRT6 protein deacetylase interacts with MYH DNA glycosylase, APE1 endonuclease, and Rad9–Rad1–Hus1 checkpoint clamp” (BMC Molecular Biology, 2015).
These are yes or no findings as the source states them, for the method shown. For part of these data: In cells and extracts the contact can be indirect. Some entries that bind do so weakly or less than the wild type. For part of these data: Sequences can lack the tags named with a protein.

Protein sequences, listed by entry. Tags and fused reporters are not part of them.
UniProt Q8N6T7: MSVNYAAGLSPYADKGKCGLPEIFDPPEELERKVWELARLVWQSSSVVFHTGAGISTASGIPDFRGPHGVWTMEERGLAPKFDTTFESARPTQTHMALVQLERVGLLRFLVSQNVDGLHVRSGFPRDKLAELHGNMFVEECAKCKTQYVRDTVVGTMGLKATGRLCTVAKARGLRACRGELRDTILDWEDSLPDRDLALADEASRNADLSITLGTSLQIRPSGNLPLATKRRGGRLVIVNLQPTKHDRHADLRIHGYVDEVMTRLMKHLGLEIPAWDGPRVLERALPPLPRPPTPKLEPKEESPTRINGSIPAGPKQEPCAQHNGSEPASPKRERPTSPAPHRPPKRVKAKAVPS
UniProt P27695: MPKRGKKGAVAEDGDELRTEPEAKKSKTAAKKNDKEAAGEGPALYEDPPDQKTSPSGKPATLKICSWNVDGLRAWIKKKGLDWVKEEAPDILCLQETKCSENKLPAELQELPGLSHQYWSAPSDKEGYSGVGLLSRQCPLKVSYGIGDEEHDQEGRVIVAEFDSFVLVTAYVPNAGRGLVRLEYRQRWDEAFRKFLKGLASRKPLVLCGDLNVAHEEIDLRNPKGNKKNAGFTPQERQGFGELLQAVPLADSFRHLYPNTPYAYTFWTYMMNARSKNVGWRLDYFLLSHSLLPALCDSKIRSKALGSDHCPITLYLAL

T1: human MutY homolog (hMYH), endogenous (human (endogenous in HeLa)) (UniProt Q9UIF7)
T1 sequence: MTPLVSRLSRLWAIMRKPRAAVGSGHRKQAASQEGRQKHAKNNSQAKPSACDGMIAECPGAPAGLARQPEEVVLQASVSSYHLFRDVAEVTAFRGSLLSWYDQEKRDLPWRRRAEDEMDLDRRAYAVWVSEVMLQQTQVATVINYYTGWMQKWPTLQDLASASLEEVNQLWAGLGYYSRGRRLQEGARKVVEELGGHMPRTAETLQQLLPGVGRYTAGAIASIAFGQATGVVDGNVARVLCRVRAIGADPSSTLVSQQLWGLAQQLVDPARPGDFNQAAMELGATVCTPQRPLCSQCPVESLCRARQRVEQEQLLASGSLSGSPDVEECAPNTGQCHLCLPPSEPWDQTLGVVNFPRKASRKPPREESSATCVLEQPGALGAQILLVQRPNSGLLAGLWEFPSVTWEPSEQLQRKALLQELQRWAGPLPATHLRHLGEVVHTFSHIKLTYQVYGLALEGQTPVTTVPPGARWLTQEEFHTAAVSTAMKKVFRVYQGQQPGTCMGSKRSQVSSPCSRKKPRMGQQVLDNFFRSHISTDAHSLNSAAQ

T2: GST-hMYH(1-350) Q324H (human, UniProt Q9UIF7-3 1-350, Q324H)
T2 construct: human MutY homolog (MYH, MUTYH), residues 1-350 with Q324H, a variant found in MAP patients; also called hMYH^Q324H; Q338H according to the new nomenclature; source: purified, immobilised on beads
T2 sequence (looked up): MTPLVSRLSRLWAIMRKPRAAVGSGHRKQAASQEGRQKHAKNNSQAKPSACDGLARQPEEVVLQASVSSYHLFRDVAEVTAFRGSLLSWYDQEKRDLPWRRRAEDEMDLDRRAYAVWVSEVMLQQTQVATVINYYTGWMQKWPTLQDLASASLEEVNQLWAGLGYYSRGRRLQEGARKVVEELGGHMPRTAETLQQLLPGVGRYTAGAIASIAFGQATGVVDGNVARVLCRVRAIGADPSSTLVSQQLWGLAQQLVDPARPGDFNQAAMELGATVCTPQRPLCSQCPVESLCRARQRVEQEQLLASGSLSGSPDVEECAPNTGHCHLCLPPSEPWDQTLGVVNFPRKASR

B1: human MutY homolog (hMYH), endogenous (protein, UniProt Q9UIF7 1-546)
chain: T1 sequence
B2: human Rad9 (hRad9), endogenous (protein, UniProt Q99638 1-391)
chain: MKCLVTGGNVKVLGKAVHSLSRIGDELYLEPLEDGLSLRTVNSSRSAYACFLFAPLFFQQYQAATPGQDLLRCKILMKSFLSVFRSLAMLEKTVEKCCISLNGRSSRLVVQLHCKFGVRKTHNLSFQDCESLQAVFDPASCPHMLRAPARVLGEAVLPFSPALAEVTLGIGRGRRVILRSYHEEEADSTAKAMVTEMCLGEEDFQQLQAQEGVAITFCLKEFRGLLSFAESANLNLSIHFDAPGRPAIFTIKDSLLDGHFVLATLSDTDSHSQDLGSPERHQPVPQLQAHSTPHPDDFANDDIDSYMIAMETTIGNEGSRVLPSISLSPGPQPPKSPGPHSEEEDEAEPSTVPGTPPPKKFRSLFFGSILAPVRSPQGPSPVLAEDSEGEG
B3: His-tagged human Hus1 (hHus1) (natural protein, UniProt O60921 1-280, looked up)
chain: MKFRAKIVDGACLNHFTRISNMIAKLAKTCTLRISPDKLNFILCDKLANGGVSMWCELEQENFFNEFQMEGVSAENNEIYLELTSENLSRALKTAQNARALKIKLTNKHFPCLTVSVELLSMSSSSRIVTHDIPIKVIPRKLWKDLQEPVVPDPDVSIYLPVLKTMKSVVEKMKNISNHLVIEANLDGELNLKIETELVCVTTHFKDLGNPPLASESTHEDRNVEHMAEVHIDIRKLLQFLAGQQVNPTKALCNIVNNKMVHFDLLHEDVSLQYFIPALS
notes: human Hus1, subunit of the Rad9-Rad1-Hus1 checkpoint clamp; pET21a usually adds a C-terminal His6 (surmise); source: E. coli BL21-Star with pET21a-hHus1, purified

Assays:
[1] = biological target: human SIRT6 (hSIRT6), endogenous (human (endogenous in HeLa)) (UniProt Q8N6T7); assay: co-IP; immunoprecipitation from HeLa cell extracts with hMYH, hAPE1 or hSIRT6 antibody, Western blot; IgG as control; extracts of untreated cells or of cells treated with 0.15 mM H2O2 for 1 h and recovered for 6 h
[2] = biological target: T1, human MutY homolog (hMYH), endogenous (human (endogenous in HeLa)); assay: as above
[3] = biological target: human AP endonuclease 1 (hAPE1), endogenous (human (endogenous in HeLa)) (UniProt P27695); assay: as above
GST-hMYH(1-350) Q324H = biological target: T2, GST-hMYH(1-350) Q324H; assay: pull-down; GST fusion protein immobilised on beads; 50 ug/ml ethidium bromide added for 30 min before the partner; bound protein detected by Western blot (FLAG, hAPE1 or His antibody); in some panels a further purified partner (hAPE1, mSirt6, hHus1) was added; both purified

Molecule	binding [1]	also measured
human AP endonuclease 1 (hAPE1), endogenous (from UniProt P27695 1-318)	binds	
human SIRT6 (hSIRT6), endogenous (from UniProt Q8N6T7 1-355)		binding [2]: binds; binding [3]: binds
B1	binds	
B2	binds	
B3		binding (GST-hMYH(1-350) Q324H): no binding
